# Assay results published in PubChem BioAssay AID504834 (National Center for Advancing Translational Sciences (NCATS), 2011).
# The campaign covered roughly 320,000 compounds. About 22,000 (6.9%) were called active. Inconclusive means that the source gave no clear call. Such entries were picked first, then a sample of the others. The call rests on the fitted dose curve; in most records, active means well fitted inhibition curve with a large enough effect; inconclusive means small, poorly fitted or top-dose-only effect, or another doubt; inactive means no such curve, though single readings can be large or run the other way. Potencies beside an inconclusive call are fits to weak or partial responses and may not hold up.
# Test: Primary qHTS for delayed death inhibitors of the malarial parasite plastid, 96 hour incubation
# Details: P. falciparum luciferase reporter growth; series mostly up to 28.7 µM; activity change, negative = inhibition: at the top concentration
# How it was run: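 Compounds incubated with erythrocytes infected by luciferase-expressing P. falciparum (2% hematocrit, 0.05% parasitemia final) for 96 hours, 37 C in 5% CO2. Growth inhibition scored as decreased luciferase luminescence.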
# On the % scale 0 is the no-effect control and ±100 the full control effect; potency means the concentration at half of the fitted maximal effect.
Compound,Potency,"activity change, negative = inhibition"
O=C(O)c1cc(N=Nc2c(O)ccc3ccccc23)cc(C(=O)O)c1,"inconclusive: 3.7 µM [inhibitor, single point]",–
CC(Oc1cc2oc(=O)c3c(c2cc1Cl)CCC3)C(=O)NCCCn1ccnc1 (stereo unspecified),"inconclusive: 18.5 µM [inhibitor, single point]",–
O=C(O)C1=CC[C@@H](c2ccc(Cl)cc2)N(S(=O)(=O)c2ccc(Cl)cc2)[C@H]1c1cccc(Cl)c1,"inconclusive: 18.5 µM [inhibitor, single point]",–
O=C(Nc1ccc(C(=O)N2CCCC2)cc1)c1ccc2c(c1)OCO2,"inconclusive: 13.1 µM [inhibitor, single point]",–
O=S(=O)(NCCNS(=O)(=O)c1cccs1)c1cccs1,"inconclusive: 13.1 µM [inhibitor, partial curve, poor fit]",–
COc1ccc(-c2csc(NC(=O)Cc3ccccc3F)n2)cc1OC,"inconclusive: 14.7 µM [inhibitor, partial curve, poor fit]",–
Cc1cc(C)c(N(CC(=O)NC(C)(C)C)C(=O)CNC(=O)c2cccs2)c(C)c1,–,inactive: 7.41%
CC(C)N(C(=S)Nc1cccc(C(F)(F)F)c1)C(C)c1ccccn1 (stereo unspecified),–,inactive: 17.7%
CC(C)(C)NC(=O)CSC(=Nc1cccc(F)c1)NC#N,"inconclusive: 0.117 µM [inhibitor, full curve, poor fit]",–
COc1cc2c(cc1NC(=O)C(C)N1CCN(S(=O)(=O)c3ccc(C)c(C)c3)CC1)oc1ccccc12 (stereo unspecified),active: 3.29 µM,–
CCc1nnc(NS(=O)(=O)c2ccc(NC(=O)c3ccccc3O)cc2)s1,–,inactive: -47.6%
COc1ccc(-c2cc3nc(C)c(CCC(=O)N4CCN(c5ccccn5)CC4)c(C)n3n2)c(OC)c1,"inconclusive: 10.4 µM [inhibitor, single point]",–
O=C(CSCC(=O)NCc1ccco1)NCc1ccco1,"inconclusive: 7.38 µM [inhibitor, partial curve, poor fit]",–
CCOC(=O)c1cnc2oc3ccccc3n2c1=O,–,inactive: 40.1%
O=C(COC(=O)/C=C/c1ccc(S(=O)(=O)N2CCOCC2)cc1)NCc1ccc(Cl)cc1,"inconclusive: 18.5 µM [inhibitor, single point]",–
CCc1ccc(S(=O)(=O)N(C(=O)c2ccncc2)c2ccc(OC(=O)c3ccncc3)cc2)cc1,"inconclusive: 18.5 µM [inhibitor, single point]",–
O=C(C[n+]1ccn(CCCNP2(=O)C=C(c3ccccc3)OC(c3ccccc3)=C2)c1)c1cccs1,"inconclusive: 1.31 µM [inhibitor, full curve, poor fit]",–
CC(OC(=O)CCc1nc2ccccc2[nH]c1=O)c1ccccc1 (stereo unspecified),"inconclusive: 13.1 µM [inhibitor, single point]",–
O=C(NCCN1CCOCC1)Nc1cccc(Cl)c1,–,inactive: 105%
CCN1CCN(C(c2ccc(OC)c(OC)c2)c2nnnn2C(C)(C)C)CC1 (stereo unspecified),"inconclusive: 16.5 µM [inhibitor, single point]",–
Fc1ccc(OCCCn2ccnc2)cc1,"inconclusive: 10.4 µM [inhibitor, partial curve, poor fit]",–
Cc1cc(NC(=O)CSc2nc3c([nH]c4ccccc43)c(=O)n2-c2cccc(C(F)(F)F)c2)no1,active: 9.28 µM,–

Compound,Potency,"activity change, negative = inhibition"
CCOC(=O)CCSc1nc2c(c(C(F)(F)F)c1C#N)CCC2,–,inactive: -26.7%
COc1ccc2c(c1)cc(C(=O)N/N=C/c1c(O)c(C(=O)O)cc3ccccc13)n2C,–,inactive: 12.8%
CCCCc1c(O)nc(SCC(=O)N2CCCCCC2)[nH]c1=O,"inconclusive: 2.62 µM [inhibitor, full curve]",–
Cc1nn(-c2ccccc2)c(Cl)c1/C=N/Nc1nc2ccccc2n1C,"inconclusive: 18.5 µM [inhibitor, single point]",–
CCCCn1c(N)c(N(CCOC)C(=O)c2ccc(F)c(S(=O)(=O)N3CCOCC3)c2)c(=O)[nH]c1=O,–,inactive: 17.7%
O=C(CCn1c(=O)oc2ccccc21)Nc1cccc(Br)c1,"inconclusive: 1.17 µM [inhibitor, partial curve, poor fit]",–
N#Cc1ccc(C23CC4(C2)[C@H](CN(Cc2ccc(C(F)(F)F)cc2)[C@@H]4c2ccccc2)C3c2ccc(C(F)(F)F)cc2)cc1 (stereo partly specified),–,inactive: -18%
O=C(C(=O)N1CCCc2ccccc21)N1CCCc2ccccc21,"inconclusive: 13.1 µM [inhibitor, partial curve, poor fit]",–
Cc1occc1-c1nnc(SCC(=O)NCCc2ccccc2)n1C(C)c1ccccc1 (stereo unspecified),active: 8.28 µM,–
COc1ccc(C(=O)CC(=O)C(=O)Nc2cc([N+](=O)[O-])ccc2OC)cc1,"inconclusive: 18.5 µM [inhibitor, single point]",–
CCOc1ccccc1N1CCN(C(=S)NCc2ccc(Cl)cc2)CC1,–,inactive: -19.5% [at 5.75 µM]
Cc1ccccc1N1CCN(C2CCCN(C(=O)c3cn4cccc(C)c4n3)C2)CC1 (stereo unspecified),"inconclusive: 18.5 µM [inhibitor, single point]",–
CC(C)Oc1ccc(C(=O)Nc2ccc(S(=O)(=O)N3CCN(C)CC3)cc2)cc1,"inconclusive: 20.8 µM [inhibitor, partial curve, poor fit]",–
Cc1ccc(CNCC(O)(c2ccc(F)cc2)c2ccc(F)cc2)cc1,active: 4.65 µM,–
CC1CC(C)CN(C(=O)C(C)N(C)CC(=O)Nc2ccc(F)cc2)C1 (stereo unspecified),"inconclusive: 10.4 µM [inhibitor, single point]",–
O=C(Cn1nnc(-c2cc(C(F)(F)F)cc(C(F)(F)F)c2)n1)NNC(=S)Nc1ccc(Cl)cc1,–,inactive: 0.836%
COc1ccc(S(=O)(=O)N2CCCCCC2)cc1C(=O)OCc1c(C)noc1C,"inconclusive: 5.22 µM [inhibitor, partial curve, poor fit]",–
COc1ccc(C2Nc3ccccc3C(=O)N2O)cc1CN1CCOCC1 (stereo unspecified),–,inactive: 20.5%
COc1ccc(/C=C/C(=O)c2cc3c(cc2N)OCO3)cc1,"inconclusive: 13.1 µM [inhibitor, single point]",–
COCCn1c(SCC(=O)NC2CCCCC2C)nnc1-c1ccncc1 (stereo unspecified),"inconclusive: 4.65 µM [inhibitor, partial curve, poor fit]",–
CN1CCN(Cc2cccc(Oc3ccc(Cl)cc3)c2)CC1,"inconclusive: 18.5 µM [inhibitor, single point]",–
CC1CCC(C(C)C)C(OP(=O)(c2ccc(N(C)C)cc2)C(O)c2cccnc2)C1 (stereo unspecified),"inconclusive: 11.7 µM [inhibitor, single point]",–

# Molecules from the list above that contain a COOH group, in the order listed:
Compound,Potency,"activity change, negative = inhibition"
O=C(O)c1cc(N=Nc2c(O)ccc3ccccc23)cc(C(=O)O)c1,"inconclusive: 3.7 µM [inhibitor, single point]",–
O=C(O)C1=CC[C@@H](c2ccc(Cl)cc2)N(S(=O)(=O)c2ccc(Cl)cc2)[C@H]1c1cccc(Cl)c1,"inconclusive: 18.5 µM [inhibitor, single point]",–
COc1ccc2c(c1)cc(C(=O)N/N=C/c1c(O)c(C(=O)O)cc3ccccc13)n2C,–,inactive: 12.8%

# More compounds

Compound,Potency,"activity change, negative = inhibition"
CC1Sc2ccc(C(=O)Nc3cc(S(C)(=O)=O)ccc3Cl)cc2NC1=O (stereo unspecified),"inconclusive: 0.657 µM [inhibitor, full curve, poor fit]",–
CCN(CC)CCCn1c(C)cc2c(c1=O)C(c1ccc(OC)c(OC)c1OC)C(C#N)=C(N)O2 (stereo unspecified),active: 0.928 µM,–
CCc1ccc(NC(=O)C2CCN(S(=O)(=O)c3ccc4[nH]c(=O)ccc4c3)CC2)cc1,"inconclusive: 18.5 µM [inhibitor, partial curve, poor fit]",–
O=[N+]([O-])c1ccc(Cl)c([N+](=O)[O-])c1,"inconclusive: 18.5 µM [inhibitor, single point]",–
CCCCCC(=O)Nc1cc(S(=O)(=O)N2CCOCC2)ccc1N1CCCCC1,"inconclusive: 9.28 µM [inhibitor, partial curve]",–
Oc1cc(-c2cccnc2)cc2cccnc12,active: 4.15 µM,–
CN(C)C(CNC(=O)CNC(=O)c1ccc(Br)cc1)c1ccccc1 (stereo unspecified),"inconclusive: 10.4 µM [inhibitor, single point]",–
Cc1ccccc1CS(=O)(=O)c1cn(CC(=O)N2CCC(C)CC2)c2ccccc12,"inconclusive: 18.5 µM [inhibitor, single point]",–
Cc1ccc(-n2c(O)c(C=NCCN3CCOCC3)c(=O)[nH]c2=O)cc1,"inconclusive: 1.31 µM [inhibitor, single point]",–
CC(C)CCNC(=O)Cc1csc(-c2ccccc2)n1,–,inactive: 24.2%
COCCn1c(-c2ccc(OC)cc2)nc2oc3cc(OC)ccc3c(=O)c2c1=O,"inconclusive: 6.57 µM [inhibitor, partial curve]",–
O=C(Cn1cnc([N+](=O)[O-])n1)NCCc1ccccc1,"inconclusive: 11.7 µM [inhibitor, partial curve, poor fit]",–
O=C(COc1ccc(F)cc1Cl)NC1CCCCCC1,–,inactive: 223%
COCCCNC(=O)Cn1c(=O)n(Cc2ccc(F)cc2)c(=O)c2sccc21,"inconclusive: 2.08 µM [inhibitor, partial curve, poor fit]",–
Cn1c(O)c(C=Nc2ccc(Br)cc2)sc1=O,–,inactive: 114%
c1cncc(CNc2ncnc3ccc(-c4cccnc4)cc23)c1,"inconclusive: 18.5 µM [inhibitor, single point]",–
CCOC(=O)c1[nH]c2cc(OC)c(OC)cc2c1NC(=O)c1nonc1C,"inconclusive: 9.28 µM [inhibitor, single point]",–
c1ccc(-n2nnnc2NC2CCCCCC2)cc1,"inconclusive: 11.7 µM [inhibitor, single point]",–
COCCOC(=O)/C(=C\c1cc(C(C)(C)C)c(O)c(C(C)(C)C)c1)C(C)=O,"inconclusive: 0.037 µM [inhibitor, full curve, poor fit]",–
COC(=O)c1c(NC(=O)C2COc3ccccc3O2)sc2c1CCN(Cc1ccccc1)C2 (stereo unspecified),"inconclusive: 2.08 µM [inhibitor, full curve, poor fit]",–
CCCC(=O)Nc1cc(C)c2c(=O)oc3ccccc3c2n1,–,inactive: 28.3%
Cn1cccc1/C=N/n1c(-c2ccco2)n[nH]c1=S,"inconclusive: 4.15 µM [inhibitor, single point]",–
